Reference: PubChem BioAssay AID2685 (National Center for Advancing Translational Sciences (NCATS), 2010)
This is one part of the list. Shown are side measurements of this screen, not its main read-out; they come without a call. Most of these compounds were active or inconclusive in the main read-out, so they are no random draw. Words in brackets tell the shape of the fitted curve; partial curves, single points and poor fits give uncertain potencies.

Experiment: qHTS Assay for Lipid Storage Modulators in Drosophila S3 Cells;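 for cell number change: cells counted by Cell Tracker Red CMTPX staining in the red channel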
Details: BODIPY lipid droplet fluorescence, 18-24 h; for cell number change: measured here: cell count max response, cells fed with added oleic acid
Procedure, shortened: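 Drosophila S3 cells loaded with oleic acid (400 uM, as added) and compounds at several concentrations; lipid droplets imaged by 488-nm laser-scanning cytometry, 500–530 nm intensity and object ratio to cell channel. Percent activity normalized to 20 uM Triacsin C.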

[1] = measured here: cell number channel AC50, cells fed with added oleic acid
[2] = measured here: lipid fluorescence (Fed channel) AC50, cells fed with added oleic acid

SMILES | cell number change [%] | AC50 [1] | AC50 [2]
COc1cccc(-n2nc(C(=O)O)c3ccccc3c2=O)c1 | -85.3 | 29.1 µM [falling, single point] | –
C=CCSc1nc2nc(C)cc(C)n2n1 | 19.8 | – | –
COc1ccc(C(=O)Nn2cnc3scc(-c4cccs4)c3c2=O)c(O)c1 | 11.9 | – | 4.11 µM [rising, full curve, poor fit]
COc1ccc(C)cc1S(=O)(=O)N(C)CC(=O)NC1CCCCCC1 | 43.4 | 0.13 µM [rising, full curve, poor fit] | 0.184 µM [rising, full curve]
Cc1csc(SCC(=O)Nc2ccccc2C)n1 | 40.3 | 29.1 µM [rising, single point] | 20.6 µM [rising, partial curve, poor fit]
COc1ccc(C2C(C(=O)N3CCCC3)c3cc(OC)c(OC)cc3C(=O)N2C)cc1 (configuration not stated) | -1.72 | – | –
CCN=C1Sc2nc3ccc(OCC)cc3cc2CN1CCOC | – | 0.58 µM [rising, full curve] | 1.3 µM [rising, full curve]
O=C1OCC2=C1C(c1ccc(Cl)cc1)CC(=O)N2c1ccc(F)cc1 (configuration not stated) | -17.8 | – | –
O=C(CSc1nnnn1-c1cccc(C(=O)O)c1)NC(c1ccccc1)c1ccccc1 | 25.4 | – | 0.00461 µM [falling, full curve, poor fit]
CCN(CC)C(=O)c1ccc(CS(=O)(=O)c2ccc(Br)cc2)cc1 | 1.46 | – | 29.1 µM [rising, single point]
Cc1cccc(C(=O)NNC(=O)c2cc3cc4ccccc4nc3s2)c1 | -40.5 | 16.4 µM [falling, partial curve] | 16.4 µM [falling, single point]
Cc1cccc(Oc2nc(-c3ccccn3)nc3ccccc23)c1 | 10.6 | 0.651 µM [rising, full curve, poor fit] | –
O=C(NCC1OCCc2ccccc21)C1COc2ccccc2O1 (configuration not stated) | 11.4 | 6.51 µM [rising, single point] | –
Cc1cccc(C)c1NC(=O)CN(C)C(=O)c1ccc(-n2cncn2)c([N+](=O)[O-])c1 | 2.83 | 4.61 µM [rising, partial curve] | –
O=C1NCCc2c1[nH]c1ccc([N+](=O)[O-])cc21 | -38.9 | – | 0.92 µM [rising, full curve]
C[C@@H]1CC[C@H]2C(=O)N3[C@@H](CC[C@@H](C)[C@@H]3c3ccc(Br)cc3)C(=O)N2[C@H]1c1ccc(Br)cc1 | -14.5 | – | 16.4 µM [rising, partial curve]
O=C1CCCN1CCC1CCN(C2CC(=O)N(c3ccc(F)cc3)C2=O)CC1 (configuration not stated) | -8.91 | 7.31 µM [falling, single point] | 0.00517 µM [falling, full curve, poor fit]
COc1ccc(OC)c(C2C=C(c3ccc(C)c(C)c3)Nc3nnnn32)c1 (configuration not stated) | -23 | – | 1.16 µM [rising, partial curve]
Cc1ccc(S(=O)(=O)c2cc(Nc3ccccc3)ccc2O)cc1 | -57.7 | 20.6 µM [falling, single point] | –

SMILES | cell number change [%] | AC50 [1] | AC50 [2]
O=C(CC(c1ccccc1)c1cc(Br)ccc1O)NCCCN1CCOCC1 (configuration not stated) | 11.3 | 0.00411 µM [rising, full curve, poor fit] | 0.58 µM [falling, single point]
CC(C)(C)c1ccc(C(=O)NNc2cc(N3CCOCC3)nc(N3CCOCC3)n2)cc1 | -18.1 | – | –
CCOC(=O)C(CCCOc1ccccc1)C(=O)OCC | -37.5 | 36.6 µM [falling, partial curve, poor fit] | –
Cc1ccc(C)c(C(=O)O/N=C(\N)c2ccc(Br)cc2)c1 | 60 | 23.1 µM [rising, single point] | –
O=C(N1CCN(Cc2ccccc2)CC1)C(Cl)(Cl)Cl | 3.23 | – | 0.461 µM [falling, full curve, poor fit]
CNC(=O)CN(c1cccc2ccccc12)S(C)(=O)=O | -0.86 | – | –
COc1ccccc1N1CCN(S(=O)(=O)c2cccc3nsnc23)CC1 | -40.2 | 32.6 µM [falling, single point] | 29.1 µM [rising, partial curve]
CN(C)CCN1C(=O)C(O)=C(C(=O)c2ccco2)C1c1ccccc1F (configuration not stated) | -36.8 | 0.58 µM [falling, full curve] | 6.51 µM [falling, partial curve]
CCOC(=O)N1CCN(C(=O)CN(c2cccc(C(F)(F)F)c2)S(=O)(=O)c2ccccc2)CC1 | -10.7 | – | 3.26 µM [falling, single point]
CCOc1cc(-c2nccc3cc(OC)c(OC)cc23)cc(OCC)c1OCC | -46.8 | – | –
O=C(COC(=O)Cc1ccc(F)cc1)Nc1ccc2[nH]c(=O)[nH]c2c1 | -19.6 | 0.461 µM [falling, full curve, poor fit] | 8.2 µM [falling, partial curve, poor fit]
N#CC1=C(N)Oc2cc3ccccc3cc2C1c1cccnc1 (configuration not stated) | -10.7 | – | 0.206 µM [rising, full curve, poor fit]
CC1(C(=O)NCCOc2ccccc2Cl)CC1(Cl)Cl (configuration not stated) | 5.8 | – | –
COCCOc1cc(NC(=O)c2ccccc2)c(Cl)cc1Cl | 64.7 | 29.1 µM [rising, partial curve, poor fit] | 16.4 µM [rising, single point]
Cc1ccc(F)cc1NC(=O)N1CCNC(=O)C1CC(=O)Nc1cc(Cl)ccc1Cl (configuration not stated) | -8.2 | 7.31 µM [rising, partial curve, poor fit] | –
O=c1/c(=C/c2ccc(O)cc2)sc2n1CCCN=2 | -22.8 | – | 25.9 µM [falling, single point]
COC(=O)c1cn(C(=O)c2cc(OC)c(OC)c(OC)c2)c2ccccc12 | -32.8 | 20.6 µM [falling, partial curve, poor fit] | –
Cc1ccc(CCNC(=O)CN(C)S(=O)(=O)c2ccc3c(c2)c(=O)n(C)c(=O)n3C)cc1 | -16.3 | 3.66 µM [rising, single point] | 18.4 µM [rising, single point]

By substructure: those above with an NH in an aromatic ring (2)
SMILES | cell number change [%] | AC50 [1] | AC50 [2]
O=C1NCCc2c1[nH]c1ccc([N+](=O)[O-])cc21 | -38.9 | – | 0.92 µM [rising, full curve]
O=C(COC(=O)Cc1ccc(F)cc1)Nc1ccc2[nH]c(=O)[nH]c2c1 | -19.6 | 0.461 µM [falling, full curve, poor fit] | 8.2 µM [falling, partial curve, poor fit]
